This is an account of results in PMC12313696.

Chains of the proteins cited; added tags and fusions are not shown. Lines headed by an entry give the natural chain unless they say otherwise; changes in a name come on top.
UniProt P15692: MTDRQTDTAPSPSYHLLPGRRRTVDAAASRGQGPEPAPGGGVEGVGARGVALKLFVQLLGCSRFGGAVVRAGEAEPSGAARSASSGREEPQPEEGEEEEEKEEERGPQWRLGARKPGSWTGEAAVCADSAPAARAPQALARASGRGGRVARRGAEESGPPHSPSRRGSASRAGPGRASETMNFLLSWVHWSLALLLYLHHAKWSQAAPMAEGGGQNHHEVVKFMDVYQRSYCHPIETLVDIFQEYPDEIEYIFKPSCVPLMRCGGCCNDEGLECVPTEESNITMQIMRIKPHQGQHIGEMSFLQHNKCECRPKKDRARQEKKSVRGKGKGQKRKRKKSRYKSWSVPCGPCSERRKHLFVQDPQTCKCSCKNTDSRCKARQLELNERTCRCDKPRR

In the data set the target is VEGF (UniProt P15692). As to the kind of experiment: SERS competition sensor (aptamer displaced from surface duplex by VEGF). The note with it: Au TOH capture substrate, Au@Pd NR ssDNA1 probe, TMB/H2O2 read-out, LOD 0.11 pg/mL is not an affinity; duplex hybridized in 8 mM phosphate, 0.8 mM MgCl2, 20 mM NaCl; VEGF in serum; PBS wash; TMB read-out at pH 4.5 (sodium acetate), 30 C, 14 min; native protein; single-stranded DNA.

Construct, isoform or probe ends are uncertain for at least one entry. At least one verdict was read from the data and is not stated in words by the source.

For “TTTTTTTTTTGTGGGGGTGGACGGGCCGGGTAGA [VEGF aptamer]”, the binding result is reported as “binds”.
